Assay results published in PubChem BioAssay AID540303 (National Center for Advancing Translational Sciences (NCATS), 2011).
The whole screen tested about 330,000 compounds, of which about 1,000 (0.3%) were called active. Inconclusive results, whose numbers are uncertain, are shown with a selection of clear calls. Calls follow the shape of the dose curve; as a rule, active = well fitted inhibition curve with a large enough effect; inconclusive = small, poorly fitted or top-dose-only effect; inactive = no such curve, though single readings can be large or run the other way; tested in mouse RAW 264.7 cells. A potency beside an inconclusive call is a rough fit, not a confirmed value.

Assay: qHTS for Inhibitors of Cell Surface uPA Generation; also: nearly all actives have a fitted effect of over 55% in size
Details: cell surface uPA generation assay; series mostly up to 38.3 µM; activity change, negative = inhibition: at the top concentration
Summary of the method: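 Murine RAW 264.7 cells are treated for 24 h with compound up to 38.3 uM final. Cell ATP, measured by ATP-Lite, remains high if blocking the uPA cascade prevents LF from reaching the cytoplasm.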
% is scaled to controls: 0 for no effect and ±100 for the full control effect; potency is read from the fitted curve at half-maximal effect.

| Compound | Potency | activity change, negative = inhibition |
| --- | --- | --- |
| O=S(=O)(Nc1ccc2nc(N3CCOCC3)sc2c1)c1ccccc1 | inconclusive: 2.82 µM [inhibitor, single point] |  |
| CC(Sc1ncnc2sc(-c3ccccc3)cc12)C(=O)NCC1CCCO1 (configuration not stated) | inconclusive: 28.2 µM [inhibitor, single point] |  |
| CCn1cc(C(=O)O)c(=O)c2cc(F)c(N/N=C/c3ccccc3[N+](=O)[O-])cc21 |  | inactive: 1.49% |
| CCCN(C1CCS(=O)(=O)C1)S(=O)(=O)c1cc(OC)ccc1OC (configuration not stated) | inconclusive: 12.6 µM [inhibitor, partial curve, poor fit] |  |
| COc1ccccc1CNC(=O)c1cc(-c2ccccc2)nn1CC1CC(c2cccnc2)=NO1 (configuration not stated) |  | inactive: 9.42% |
| O=C(COc1ccc(Cl)cc1Cl)Nc1ccc(Cl)cn1 | inconclusive: 5.62 µM [inhibitor, partial curve, poor fit] |  |
| O=C(Nc1nc2c(s1)COc1ccccc1-2)c1cccs1 |  | inactive: -19.9% |
| COc1cccc(C(=O)C(C#N)=C(SC)SC)c1 | inconclusive: 8.91 µM [inhibitor, partial curve] |  |
| O=C(O)C=C1CCN(c2ncc(C(F)(F)F)cc2Cl)CC1 |  | inactive: -2.49% |
| COc1ccc(S(=O)(=O)N2CCc3ccccc32)cc1OC |  | inactive: -4.61% |
| COc1cccc(NC(=O)C2CC(=O)N(Cc3ccco3)C2)c1 (configuration not stated) | inconclusive: 0.447 µM [inhibitor, full curve, poor fit] |  |
| Cc1ccc2nc(N(CCCN(C)C)C(=O)c3ccc(S(=O)(=O)N4CCOCC4)cc3)sc2c1 | inconclusive: 5.62 µM [inhibitor, partial curve, poor fit] |  |
| O=S(=O)(c1ccc(Cl)cc1)N1CCN(c2nc(-c3cccs3)nc3ccccc23)CC1 |  | inactive: 4.38% |
| CCC(=O)NC(C)c1cc(Cl)c2cccnc2c1O (configuration not stated) | inconclusive: 10 µM [inhibitor, partial curve, poor fit] |  |
| O=C(O)C1=C(C(=O)Nc2ccc(F)c(Cl)c2)CCCC1 |  | inactive: 3.42% |
| Cc1c(C)c2cccnc2c2ncccc12 | inconclusive: 1.26 µM [inhibitor, full curve, poor fit] |  |
| Cc1cc(=O)n2nc(N3CCC(C(=O)NCc4ccccc4F)CC3)sc2n1 | inconclusive: 11.2 µM [inhibitor, single point] |  |
| COc1ccc(NC(=O)CCCC(=O)c2ccccc2)cc1 | inconclusive: 31.6 µM [inhibitor, single point] |  |
| CCN1/C(=C/c2ccc3cc(C)ccc3[n+]2C)Sc2ccc3sccc3c21 | active: 10 µM |  |
| Cc1cnc(C(=O)OCC(=O)N2CCC(C)CC2)cn1 |  | inactive: -0.859% |
| NS(=O)(=O)c1ccc(CNC(=O)/C=C/c2ccccc2)cc1 |  | inactive: 3.01% |
| CCC(=O)Nc1ccc(C=C(C(C)=O)C(C)=O)cc1 | inconclusive: 12.6 µM [inhibitor, single point] |  |
| Cc1cc(Br)ccc1OCCOCCN1CCCC1 | inconclusive: 12.6 µM [inhibitor, single point] |  |
| CC(C)NC(=O)C(=O)NNC(=O)CCc1ccccc1 |  | inactive: -1.4% |

Quoted from the listing.
Entry of `Cc1cc(=O)n2nc(N3CCC(C(=O)NCc4ccccc4F)CC3)sc2n1` under Potency: inconclusive: 11.2 µM [inhibitor, single point]
Entry of `CCC(=O)NC(C)c1cc(Cl)c2cccnc2c1O` (configuration not stated) under Potency: inconclusive: 10 µM [inhibitor, partial curve, poor fit]
Entry of `CCn1cc(C(=O)O)c(=O)c2cc(F)c(N/N=C/c3ccccc3[N+](=O)[O-])cc21` under activity change, negative = inhibition: inactive: 1.49%

Later entries.

| Compound | Potency | activity change, negative = inhibition |
| --- | --- | --- |
| O=C(COC(=O)C1CC2C=CC1C2)NCc1ccc(F)cc1 (configuration not stated) |  | inactive: 0.185% |
| COc1ccc(/C=N/Nc2nccnc2Cl)cc1 | inconclusive: 3.16 µM [inhibitor, partial curve] |  |
| CC1=NN(Cc2cc(C(C)(C)C)c(O)c(C(C)(C)C)c2)C(=O)C1 | inconclusive: 11.2 µM [inhibitor, single point] |  |
| NC(=O)[C@H]1CC2(CC(c3cccc(NC(=O)COc4ccc(Cl)cc4)c3)=NO2)CN1C(=O)c1ccc(Cl)cc1 (some centres not stated) | inconclusive: 12.6 µM [inhibitor, single point] |  |
| CCN(CC)S(=O)(=O)c1ccc(N2CC(C(=O)NC3(C)CCS(=O)(=O)C3)CC2=O)cc1 (configuration not stated) | inconclusive: 0.0251 µM [inhibitor, full curve, poor fit] |  |
| CCNc1ccc2noc3c2c1C(=O)c1ccccc1-3 | inconclusive: 3.98 µM [inhibitor, partial curve] |  |
| CCO[C@@H]1OC(C(=O)N2CCN(Cc3ccc4c(c3)OCO4)CC2)=C[C@H](c2ccc(Br)cc2)[C@H]1CCCO | inconclusive: 28.2 µM [inhibitor, single point] |  |
| COc1cc(C2C(C#N)=C(C)NC3=C2C(=O)c2ccccc23)cc(OC)c1OC (configuration not stated) | inconclusive: 0.501 µM [inhibitor, full curve, poor fit] |  |
| Cc1cnc(C(=O)Nc2nccs2)cn1 |  | inactive: -2.66% |
| CCN(CC)S(=O)(=O)c1ccc(N2CCOCC2)c(NC(=O)c2cccc3c(=O)c(C)c(-c4ccccc4)oc23)c1 | active: 4.47 µM |  |
| Cc1ccc(N(C)S(=O)(=O)c2ccc(-c3cnc(C4CC4)o3)cc2)cc1 | inconclusive: 0.0126 µM [inhibitor, full curve, poor fit] |  |
| COc1ccc(-c2nc3ccccc3[nH]2)cc1 | inconclusive: 2.51 µM [inhibitor, full curve] |  |
| O=C(N/N=C/c1cc(O)ccc1[N+](=O)[O-])c1ccc2c(c1)OCCO2 |  | inactive: -10.3% |
| Brc1ccc2c(c1)C(c1cccnc1)=NNC(c1cccs1)=N2 |  | inactive: -6.83% |
| N#CCCn1cc(/C=N/O)c(-c2ccc(F)cc2)n1 |  | inactive: 3.33% |
| O=S(=O)(c1cccc2cnccc12)N1CCCNCC1 |  | inactive: -29.3% |
| CCOC(=O)C(C)Oc1cccc2c(=O)n(CC(=O)NCc3ccc4c(c3)OCO4)ccc12 (configuration not stated) | inconclusive: 1 µM [inhibitor, full curve, poor fit] |  |
| CNc1ncc(C(=O)c2ccc(-c3ccccc3)cc2)s1 | inconclusive: 3.55 µM [inhibitor, partial curve] |  |
| Cc1scc(C(=O)N/N=C/c2ccsc2)c1C | active: 6.31 µM |  |
| COc1cccc(-c2cc(C(=O)N3CCCCCC3)no2)c1 | inconclusive: 5.62 µM [inhibitor, partial curve, poor fit] |  |
| O=[N+]([O-])c1ccc2c(c1)OCCOCCOCCOCCOCCOCCO2 |  | inactive: 1.09% |
| COc1ccc([C@H]2CC(=O)C=C(c3cccc4c3Oc3ccccc3S4)C2)cc1 | inconclusive: 11.2 µM [inhibitor, partial curve, poor fit] |  |
| COc1ccc(NC(=O)c2cc(C)no2)cc1 |  | inactive: 0.188% |
